No constants are given. Whether binding was seen depends on the method and setting. In cells and extracts the contact can be indirect. Some results given as binding are weak or reduced against the parent protein; the word gives no strength. Tags and fused reporters may be left off the sequences shown.

The chains behind the UniProt entries cited, without tags or fusion partners. Where a name states a change or a piece, a line headed by the entry shows the natural chain unless it says otherwise.
UniProt P07333: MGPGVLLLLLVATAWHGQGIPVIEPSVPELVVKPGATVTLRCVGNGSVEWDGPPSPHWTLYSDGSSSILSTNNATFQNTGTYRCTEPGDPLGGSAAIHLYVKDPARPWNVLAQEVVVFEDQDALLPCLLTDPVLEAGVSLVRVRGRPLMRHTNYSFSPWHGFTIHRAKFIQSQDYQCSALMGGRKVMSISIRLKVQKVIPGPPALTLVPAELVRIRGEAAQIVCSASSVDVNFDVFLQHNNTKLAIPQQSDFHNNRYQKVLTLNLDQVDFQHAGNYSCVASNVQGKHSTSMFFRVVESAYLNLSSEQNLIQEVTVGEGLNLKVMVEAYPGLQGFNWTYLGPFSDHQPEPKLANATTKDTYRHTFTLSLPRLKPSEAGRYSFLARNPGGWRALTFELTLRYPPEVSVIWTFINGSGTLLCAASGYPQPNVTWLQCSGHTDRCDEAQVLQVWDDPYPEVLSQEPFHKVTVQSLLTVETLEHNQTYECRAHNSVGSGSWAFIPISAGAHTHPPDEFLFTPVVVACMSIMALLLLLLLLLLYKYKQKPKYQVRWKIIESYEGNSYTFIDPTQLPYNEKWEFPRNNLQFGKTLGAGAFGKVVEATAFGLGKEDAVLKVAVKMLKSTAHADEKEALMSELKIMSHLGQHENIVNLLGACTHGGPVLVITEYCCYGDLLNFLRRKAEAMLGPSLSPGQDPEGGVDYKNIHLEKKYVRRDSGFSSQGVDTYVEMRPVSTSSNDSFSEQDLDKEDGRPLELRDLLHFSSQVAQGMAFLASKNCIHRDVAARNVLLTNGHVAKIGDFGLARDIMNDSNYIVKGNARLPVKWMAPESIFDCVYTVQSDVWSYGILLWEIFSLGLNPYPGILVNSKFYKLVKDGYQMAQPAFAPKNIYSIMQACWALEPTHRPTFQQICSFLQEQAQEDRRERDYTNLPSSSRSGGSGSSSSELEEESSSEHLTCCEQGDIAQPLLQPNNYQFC

The assay has as its target T1, N-terminally Flag-tagged human TNF-α–induced protein 2 (TNFAIP2) (human) (UniProt Q03169).
T1 sequence: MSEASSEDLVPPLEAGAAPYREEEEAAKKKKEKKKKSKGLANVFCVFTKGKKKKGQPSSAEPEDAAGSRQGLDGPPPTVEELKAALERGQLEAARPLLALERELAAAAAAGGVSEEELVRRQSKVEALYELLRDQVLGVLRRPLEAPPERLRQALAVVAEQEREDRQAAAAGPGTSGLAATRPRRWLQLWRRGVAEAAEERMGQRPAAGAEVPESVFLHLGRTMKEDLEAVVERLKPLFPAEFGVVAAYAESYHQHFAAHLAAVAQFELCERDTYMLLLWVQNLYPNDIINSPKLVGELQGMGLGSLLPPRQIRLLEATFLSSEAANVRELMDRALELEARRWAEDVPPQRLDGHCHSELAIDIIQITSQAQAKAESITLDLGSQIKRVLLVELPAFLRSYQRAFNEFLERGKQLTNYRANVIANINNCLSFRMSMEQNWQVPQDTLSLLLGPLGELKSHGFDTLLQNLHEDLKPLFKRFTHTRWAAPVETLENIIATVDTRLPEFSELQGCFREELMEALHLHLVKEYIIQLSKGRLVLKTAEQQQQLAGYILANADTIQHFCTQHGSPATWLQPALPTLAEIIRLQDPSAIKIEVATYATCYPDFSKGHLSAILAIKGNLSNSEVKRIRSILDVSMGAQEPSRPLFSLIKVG
Briefly: co-IP; anti-Flag (M2) antibody and Protein A/G PLUS Agarose on Nonidet P-40 lysates of TNFAIP2-expressing 293 cells transfected with WT or mutant CSF1R plasmid, cultured 2 d without CSF-1; immunoprecipitates blotted with anti-CSF1R and anti-TNFAIP2.
Turning to “CSF1R 1–537 mutant (C-terminally deleted) (from UniProt P07333 20-537) (domain or fragment)”, the binding entry is on record as “no binding”.

With “CSF1R 1–545 mutant (C-terminally deleted) (from UniProt P07333 20-545) (domain or fragment)”, the binding entry was “binds”.

“WT CSF1R (receptor of CSF-1) (from UniProt P07333 20-972)”: the binding result is on record as “binds”.

(Values after PMC11821806.)
